PubChem BioAssay AID1508597 – Cure First, 2020
Test: 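Genes whose silencing sensitises or protects ovarian cancer cells against rucaparib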 (primary screen). System: human ovarian carcinoma lines grown from tumours: OCI-P5x (papillary serous) and OCI-C5x (clear cell). Reagents: siRNA pool against human genes, 1.25 pmol siRNA per well. Time to read-out: 72 h or 96 h, depending on the cell culture. Challenge: rucaparib 20 µM (about IC30) or vehicle, present until read-out. Rucaparib or vehicle: Rucaparib. Cell line: OCI-C5x (clear cell). Measured: 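Luminescent ATP-based viability assay read 72 or 96 h after transfection, depending on culture, given as normalised percent viability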. Direction: viability, normalised: higher = more viable cells remaining. Rule for the call: 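a well counts as a hit if its normalised viability is under 80 percent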. Calls: active = viability under 80%; inactive = viability 80% or more.
This is a random part of the about 2,100 reagents, under one of the conditions tested. 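Calls flag viability under 80% in either arm, not effects specific to rucaparib; the reference for percent is not stated.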 Entries without a mark were called inactive. A reagent listed more than once was tested more than once; the source does not tell the runs apart. Not given: the 100% reference.

| target gene | technical replicate | viability, normalised (%) |
| --- | --- | --- |
| PLCB3 | 1 | 45.7 (active) |
| PLCB3 | 2 | 31.6 (active) |
| PLCB3 | 3 | 33.6 (active) |
| KMT5B | 1 | 75 (active) |
| KMT5B | 2 | 74.4 (active) |
| KMT5B | 3 | 66.8 (active) |
| WEE1 | 1 | 23.5 (active) |
| WEE1 | 1 | 35.1 (active) |
| WEE1 | 2 | 24.6 (active) |
| WEE1 | 2 | 40.6 (active) |
| WEE1 | 3 | 26.8 (active) |
| WEE1 | 3 | 16.6 (active) |
| MELK | 1 | 27.9 (active) |
| MELK | 2 | 30.9 (active) |
| MELK | 3 | 34 (active) |
| KDM1A | 1 | 38.6 (active) |
| KDM1A | 2 | 37.6 (active) |
| KDM1A | 3 | 46.5 (active) |
| GON4L | 1 | 40 (active) |
| GON4L | 2 | 39.1 (active) |
| GON4L | 3 | 42.9 (active) |

Continued; the last 3 above are carried over.
| target gene | technical replicate | viability, normalised (%) |
| --- | --- | --- |
| GON4L | 1 | 40 (active) |
| GON4L | 2 | 39.1 (active) |
| GON4L | 3 | 42.9 (active) |
| REV1 | 1 | 44.1 (active) |
| REV1 | 1 | 26.6 (active) |
| REV1 | 2 | 45.4 (active) |
| REV1 | 2 | 34.2 (active) |
| REV1 | 3 | 59.1 (active) |
| REV1 | 3 | 44.4 (active) |
| ARID5B | 1 | 35.9 (active) |
| ARID5B | 2 | 22.7 (active) |
| ARID5B | 3 | 19.6 (active) |
| IGF2R | 1 | 44.2 (active) |
| IGF2R | 2 | 44.3 (active) |
| IGF2R | 3 | 51.3 (active) |
| SMC3 | 1 | 53 (active) |
| SMC3 | 2 | 45.5 (active) |
| SMC3 | 3 | 35.9 (active) |
| SATB1 | 1 | 55.8 (active) |
| SATB1 | 2 | 47.3 (active) |
| SATB1 | 3 | 39.6 (active) |
